Assay results from patent US10548319B2 (The Curators of the University of Missouri, priority 2014, dated 2020).

Assay: general procedure: solution-phase peptide synthesis; EDCI, HOBT, Et3N

[CH3(CH2)17]2NCOCH2OCH2CO-Gly-Gly-Gly-Pro-Gly-Gly-Gly-O(CH2)6CH3 (GGGPGGG; N-terminal dioctadecyl anchor, C-terminal heptyl ester; printed: Gly-Gly-Gly-Pro-Gly-Gly-Gly-)
step yield (coupling step): 61%

182-[DGA]-GGGPGGG-OH
step yield (late stage modification step): 94%

Cbz-PGGG-OC7H15
step yield (coupling step): 90%

182DGA-GGGPGGG-OCH2Ph
step yield (coupling step): 82%

Boc-PGGG-OCH2Ph
step yield (coupling step): 71%
